Laboratory results reported in publication PMC4873647.
These are yes or no findings as the source states them, for the method shown. Binding seen in cells or lysates may run through a third protein. Some results given as binding are weak or reduced against the parent protein; the word gives no strength.

By UniProt entry, the sequences of proteins in these tests, tags left out. Where a name states a change or a piece, a line headed by the entry shows the natural chain unless it says otherwise.
UniProt P49023, whole entry: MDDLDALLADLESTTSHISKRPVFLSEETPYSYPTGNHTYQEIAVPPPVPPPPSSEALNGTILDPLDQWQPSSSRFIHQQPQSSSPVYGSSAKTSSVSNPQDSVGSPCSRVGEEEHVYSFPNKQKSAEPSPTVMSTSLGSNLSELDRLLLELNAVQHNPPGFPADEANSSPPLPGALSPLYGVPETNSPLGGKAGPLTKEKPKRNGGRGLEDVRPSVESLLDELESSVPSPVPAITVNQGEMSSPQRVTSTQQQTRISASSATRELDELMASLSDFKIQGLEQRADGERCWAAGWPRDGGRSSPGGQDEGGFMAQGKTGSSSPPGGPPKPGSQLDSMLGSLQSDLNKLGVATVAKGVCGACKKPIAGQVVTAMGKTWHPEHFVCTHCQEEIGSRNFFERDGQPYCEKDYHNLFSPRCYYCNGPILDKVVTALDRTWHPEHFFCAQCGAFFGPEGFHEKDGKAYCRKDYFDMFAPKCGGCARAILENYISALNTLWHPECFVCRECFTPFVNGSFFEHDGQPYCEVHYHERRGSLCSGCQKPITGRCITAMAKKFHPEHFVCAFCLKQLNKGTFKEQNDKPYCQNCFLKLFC
UniProt P24385, whole entry: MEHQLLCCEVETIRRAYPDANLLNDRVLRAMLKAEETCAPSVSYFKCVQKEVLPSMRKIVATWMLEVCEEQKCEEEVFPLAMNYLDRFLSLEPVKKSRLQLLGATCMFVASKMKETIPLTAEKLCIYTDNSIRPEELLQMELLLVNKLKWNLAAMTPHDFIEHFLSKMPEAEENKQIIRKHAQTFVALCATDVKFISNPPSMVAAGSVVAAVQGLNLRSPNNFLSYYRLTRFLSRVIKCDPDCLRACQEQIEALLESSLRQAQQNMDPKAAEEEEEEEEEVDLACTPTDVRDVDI

Target: GFP-tagged Pxn, wild type (in HEK293T cells) (human) (UniProt P49023)
Assay: co-IP; HEK293T cells co-transfected with HA-tagged Ccnd1 and wild-type or mutant GFP-tagged Pxn (Supplementary Fig. 1B)

hemagglutinin (HA)-tagged Ccnd1 (in HEK293T cells) (from UniProt P24385 1-295)
binding: binds
